Data published in PubChem BioAssay AID2685 (National Center for Advancing Translational Sciences (NCATS), 2010).
This is one part of the list. Further columns of the screen follow, without active or inactive calls. The list favours compounds with an active or inconclusive main result. Potencies come from curve fits of mixed quality, noted in brackets.

Experiment: qHTS Assay for Lipid Storage Modulators in Drosophila S3 Cells;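 as to cell number change: cells counted by Cell Tracker Red CMTPX staining in the red channel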
Conditions: BODIPY lipid droplet fluorescence, 18-24 h
Procedure, shortened: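 Drosophila S3 cells got compounds at several concentrations plus oleic acid (400 uM solution). Laser-scanning cytometry with 488 nm excitation read lipid droplets at 500-530 nm and cells at 575-640 nm. Percent activity was relative to 20 uM Triacsin C.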

## O=C1NN(c2ccc(F)c(Cl)c2)C(=O)/C1=C\c1cccc(OC(=O)c2cccs2)c1
Measured here: cell count max response, cells fed with added oleic acid
  cell number change: -17.8%
Measured here: cell number channel AC50, cells fed with added oleic acid
  AC50: 0.731 µM [falling, partial curve, poor fit]
Measured here: lipid fluorescence (Fed channel) AC50, cells fed with added oleic acid
  AC50: 23.1 µM [falling, partial curve]
